These are yes or no findings as the source states them, for the method shown. In cells and extracts the contact can be indirect. These calls come from enrichment with a bait or labelling near it, and not all partners need be listed. Tags and fused reporters may be left off the sequences shown.
B1: Regulator of non-sense transcripts 1 (protein, UniProt Q92900 1-1129)
chain: MSVEAYGPSSQTLTFLDTEEAELLGADTQGSEFEFTDFTLPSQTQTPPGGPGGPGGGGAGGPGGAGAGAAAGQLDAQVGPEGILQNGAVDDSVAKTSQLLAELNFEEDEEDTYYTKDLPIHACSYCGIHDPACVVYCNTSKKWFCNGRGNTSGSHIVNHLVRAKCKEVTLHKDGPLGETVLECYNCGCRNVFLLGFIPAKADSVVVLLCRQPCASQSSLKDINWDSSQWQPLIQDRCFLSWLVKIPSEQEQLRARQITAQQINKLEELWKENPSATLEDLEKPGVDEEPQHVLLRYEDAYQYQNIFGPLVKLEADYDKKLKESQTQDNITVRWDLGLNKKRIAYFTLPKTDSGNEDLVIIWLRDMRLMQGDEICLRYKGDLAPLWKGIGHVIKVPDNYGDEIAIELRSSVGAPVEVTHNFQVDFVWKSTSFDRMQSALKTFAVDETSVSGYIYHKLLGHEVEDVIIKCQLPKRFTAQGLPDLNHSQVYAVKTVLQRPLSLIQGPPGTGKTVTSATIVYHLARQGNGPVLVCAPSNIAVDQLTEKIHQTGLKVVRLCAKSREAIDSPVSFLALHNQIRNMDSMPELQKLQQLKDETGELSSADEKRYRALKRTAERELLMNADVICCTCVGAGDPRLAKMQFRSILIDESTQATEPECMVPVVLGAKQLILVGDHCQLGPVVMCKKAAKAGLSQSLFERLVVLGIRPIRLQVQYRMHPALSAFPSNIFYEGSLQNGVTAADRVKKGFDFQWPQPDKPMFFYVTQGQEEIASSGTSYLNRTEAANVEKITTKLLKAGAKPDQIGIITPYEGQRSYLVQYMQFSGSLHTKLYQEVEIASVDAFQGREKDFIILSCVRANEHQGIGFLNDPRRLNVALTRARYGVIIVGNPKALSKQPLWNHLLNYYKEQKVLVEGPLNNLRESLMQFSKPRKLVNTINPGARFMTTAMYDAREAIIPGSVYDRSSQGRPSSMYFQTHDQIGMISAGPSHVAAMNIPIPFNLVMPPMPPPGYFGQANGPAAGRGTPKGKTGRGGRQKNRFGLPGPSQTNLPNSQASQDVASQPFSQGALTQGYISMSQPSQMSQPGLSQPELSQDSYLGDEFKSQIDVALSQDSTYQGERAYQHGGVTGLSQY
B2: Ribosomal RNA-Processing Protein 44 (protein, UniProt Q9Y2L1 1-958)
chain: MLKSKTFLKKTRAGGVMKIVREHYLRDDIGCGAPGCAACGGAHEGPALEPQPQDPASSVCPQPHYLLPDTNVLLHQIDVLEDPAIRNVIVLQTVLQEVRNRSAPVYKRIRDVTNNQEKHFYTFTNEHHRETYVEQEQGENANDRNDRAIRVAAKWYNEHLKKMSADNQLQVIFITNDRRNKEKAIEEGIPAFTCEEYVKSLTANPELIDRLACLSEEGNEIESGKIIFSEHLPLSKLQQGIKSGTYLQGTFRASRENYLEATVWIHGDNEENKEIILQGLKHLNRAVHEDIVAVELLPKSQWVAPSSVVLHDEGQNEEDVEKEEETERMLKTAVSEKMLKPTGRVVGIIKRNWRPYCGMLSKSDIKESRRHLFTPADKRIPRIRIETRQASTLEGRRIIVAIDGWPRNSRYPNGHFVRNLGDVGEKETETEVLLLEHDVPHQPFSQAVLSFLPKMPWSITEKDMKNREDLRHLCICSVDPPGCTDIDDALHCRELENGNLEVGVHIADVSHFIRPGNALDQESARRGTTVYLCEKRIDMVPELLSSNLCSLKCDVDRLAFSCIWEMNHNAEILKTKFTKSVINSKASLTYAEAQLRIDSANMNDDITTSLRGLNKLAKILKKRRIEKGALTLSSPEVRFHMDSETHDPIDLQTKELRETNSMVEEFMLLANISVAKKIHEEFSEHALLRKHPAPPPSNYEILVKAARSRNLEIKTDTAKSLAESLDQAESPTFPYLNTLLRILATRCMMQAVYFCSGMDNDFHHYGLASPIYTHFTSPIRRYADVIVHRLLAVAIGADCTYPELTDKHKLADICKNLNFRHKMAQYAQRASVAFHTQLFFKSKGIVSEEAYILFVRKNAIVVLIPKYGLEGTVFFEEKDKPNPQLIYDDEIPSLKIEDTVFHVFDKVKVKIMLDSSNLQHQKIRMSLVEPQIPGISIPTDTSNMDLNGPKKKKMKLGK
B3: Branched Chain Keto Acid Dehydrogenase E1, Alpha Polypeptide (protein, UniProt P12694 46-445)
chain: SSLDDKPQFPGASAEFIDKLEFIQPNVISGIPIYRVMDRQGQIINPSEDPHLPKEKVLKLYKSMTLLNTMDRILYESQRQGRISFYMTNYGEEGTHVGSAAALDNTDLVFGQYREAGVLMYRDYPLELFMAQCYGNISDLGKGRQMPVHYGCKERHFVTISSPLATQIPQAVGAAYAAKRANANRVVICYFGEGAASEGDAHAGFNFAATLECPIIFFCRNNGYAISTPTSEQYRGDGIAARGPGYGIMSIRVDGNDVFAVYNATKEARRRAVAENQPFLIEAMTYRIGHHSTSDDSSAYRSVDEVNYWDKQDHPISRLRHYLLSQGWWDEEQEKAWRKQSRRKVMEAFEQAERKPKPNPNLLFSDVYQEMPAQLRKQQESLARHLQTYGEHYPLDHFDK
B4: Leucine Rich Repeat and Coiled-Coil Centrosomal Protein 1 (protein, UniProt Q9C099 1-1032)
chain: MEAAAAVVAAEAEVENEDGDSSCGDVCFMDKGLQSISELSLDSTLHAVNLHCNNISKIEAIDHIWNLQHLDLSSNQISRIEGLNTLTKLCTLNLSCNLITKVEGLEELINLTRLNVSYNHIDDLSGLIPLHGIKHKLRYIDLHSNRIDSIHHLLQCMVGLHFLTNLILEKDGDDNPVCRLPGYRAVILQTLPQLRILDCKNIFGEPVNLTEINSSQLQCLEGLLDNLVSSDSPLNISEDEIIDRMPVITAPIDELVPLEQFASTPSDAVLTSFMSVCQSSEPEKNNHENDLQNEIKLQKLDDQILQLLNETSNSIDNVLEKDPRPKRDTDITSESDYGNRKECNRKVPRRSKIPYDAKTIQTIKHHNKNYNSFVSCNRKMKPPYLKELYVSSSLANCPMLQESEKPKTEIIKVDQSHSEDNTYQSLVEQLDQEREKRWRAEQAENKLMDYIDELHKHANEKEDIHSLALLTTDRLKEIIFRERNSKGQLEVMVHKLQNEIKKLTVELMKAKDQQEDHLKHLRTLEKTLEKMERQKRQQQAAQIRLIQEVELKASAADREIYLLRTSLHREREQAQQLHQLLALKEQEHRKELETREFFTDADFQDALAKEIAKEEKKHEQMIKEYQEKIDVLSQQYMDLENEFRIALTVEARRFQDVKDGFENVATELAKSKHALIWAQRKENESSSLIKDLTCMVKEQKTKLAEVSKLKQETAANLQNQINTLEILIEDDKQKSIQIELLKHEKVQLISELAAKESLIFGLRTERKVWGHELAQQGSSLAQNRGKLEAQIESLSRENECLRKTNESDSDALRIKCKIIDDQTETIRKLKDCLQEKDEHIKRLQEKITEIEKCTQEQLDEKSSQLDEVLEKLERHNERKEKLKQQLKGKEVELEEIRKAYSTLNRKWHDKGELLCHLETQVKEVKEKFENKEKKLKAERDKSIELQKNAMEKLHSMDDAFKRQVDAIVEAHQAEIAQLANEKQKCIDSANLKVHQIEKEMRELLEETCKNKKTMEAKIKQLAFALNEIQQDM
B5: RNA Binding Motif Protein 22 (protein, UniProt Q9NW64 1-420)
chain: MATSLGSNTYNRQNWEDADFPILCQTCLGENPYIRMTKEKYGKECKICARPFTVFRWCPGVRMRFKKTEVCQTCSKLKNVCQTCLLDLEYGLPIQVRDAGLSFKDDMPKSDVNKEYYTQNMEREISNSDGTRPVGMLGKATSTSDMLLKLARTTPYYKRNRPHICSFWVKGECKRGEECPYRHEKPTDPDDPLADQNIKDRYYGINDPVADKLLKRASTMPRLDPPEDKTITTLYVGGLGDTITETDLRNHFYQFGEIRTITVVQRQQCAFIQFATRQAAEVAAEKSFNKLIVNGRRLNVKWGRSQAARGKEKEKDGTTDSGIKLEPVPGLPGALPPPPAAEEEASANYFNLPPSGPPAVVNIALPPPPGIAPPPPPGFGPHMFHPMGPPPPFMRAPGPIHYPSQDPQRMGAHAGKHSSP
B6: Ataxin 10 (protein, UniProt Q9UBB4 1-475)
chain: MAAPRPPPARLSGVMVPAPIQDLEALRALTALFKEQRNRETAPRTIFQRVLDILKKSSHAVELACRDPSQVENLASSLQLITECFRCLRNACIECSVNQNSIRNLDTIGVAVDLILLFRELRVEQESLLTAFRCGLQFLGNIASRNEDSQSIVWVHAFPELFLSCLNHPDKKIVAYSSMILFTSLNHERMKELEENLNIAIDVIDAYQKHPESEWPFLIITDLFLKSPELVQAMFPKLNNQERVTLLDLMIAKITSDEPLTKDDIPVFLRHAELIASTFVDQCKTVLKLASEEPPDDEEALATIRLLDVLCEMTVNTELLGYLQVFPGLLERVIDLLRVIHVAGKETTNIFSNCGCVRAEGDISNVANGFKSHLIRLIGNLCYKNKDNQDKVNELDGIPLILDNCNISDSNPFLTQWVIYAIRNLTEDNSQNQDLIAKMEEQGLADASLLKKVGFEVEKKGEKLILKSTRDTPKP

Target: T1, SFB-tagged WWOX (WW domain-containing oxidoreductase) (human) (UniProt Q9NZC7)
T1 sequence: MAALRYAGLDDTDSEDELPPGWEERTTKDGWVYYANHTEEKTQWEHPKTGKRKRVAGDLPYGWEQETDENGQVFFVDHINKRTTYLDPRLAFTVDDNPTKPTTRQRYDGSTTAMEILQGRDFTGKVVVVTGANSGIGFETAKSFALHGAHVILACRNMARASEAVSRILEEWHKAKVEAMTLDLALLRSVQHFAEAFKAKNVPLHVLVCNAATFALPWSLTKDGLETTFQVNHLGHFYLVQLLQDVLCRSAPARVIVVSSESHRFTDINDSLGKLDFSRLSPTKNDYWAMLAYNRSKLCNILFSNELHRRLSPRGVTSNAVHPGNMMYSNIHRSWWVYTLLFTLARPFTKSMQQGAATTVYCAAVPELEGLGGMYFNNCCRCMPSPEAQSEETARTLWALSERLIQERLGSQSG
Test: affinity purification with mass spectrometry; tandem affinity purification from lysate (NETN buffer) of HEK293T cells stably expressing C-terminally SFB-tagged WWOX: streptavidin beads, elution with 2 mg/ml biotin, then S protein beads; LC-MS/MS; two replicates; hits filtered by MUSE interaction score and CRAPome frequency

binding, binds:
B1
B2
B3
B4
B5
B6
